Source: PMC11535364
These are yes or no findings as the source states them, for the method shown. Binding seen in cells or lysates may run through a third protein. Some binding calls cover weakened binding; strength is not graded here.

The chains behind the UniProt entries cited, without tags or fusion partners.
UniProt Q9DBL9: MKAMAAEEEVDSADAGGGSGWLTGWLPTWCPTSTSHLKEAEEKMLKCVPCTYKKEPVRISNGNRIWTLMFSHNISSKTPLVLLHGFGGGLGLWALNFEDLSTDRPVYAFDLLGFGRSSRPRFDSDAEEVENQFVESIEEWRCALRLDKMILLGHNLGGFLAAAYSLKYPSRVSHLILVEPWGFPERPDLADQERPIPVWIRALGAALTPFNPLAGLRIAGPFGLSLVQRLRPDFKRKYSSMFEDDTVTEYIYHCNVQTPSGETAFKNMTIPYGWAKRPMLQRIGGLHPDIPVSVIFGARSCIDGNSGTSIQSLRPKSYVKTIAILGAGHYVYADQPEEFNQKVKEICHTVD

Biological target: T1, Perilipin 1 (PLIN1) (mouse (endogenous in osteoblasts from mouse bone marrow MSCs)) (UniProt Q8CGN5)
T1 sequence: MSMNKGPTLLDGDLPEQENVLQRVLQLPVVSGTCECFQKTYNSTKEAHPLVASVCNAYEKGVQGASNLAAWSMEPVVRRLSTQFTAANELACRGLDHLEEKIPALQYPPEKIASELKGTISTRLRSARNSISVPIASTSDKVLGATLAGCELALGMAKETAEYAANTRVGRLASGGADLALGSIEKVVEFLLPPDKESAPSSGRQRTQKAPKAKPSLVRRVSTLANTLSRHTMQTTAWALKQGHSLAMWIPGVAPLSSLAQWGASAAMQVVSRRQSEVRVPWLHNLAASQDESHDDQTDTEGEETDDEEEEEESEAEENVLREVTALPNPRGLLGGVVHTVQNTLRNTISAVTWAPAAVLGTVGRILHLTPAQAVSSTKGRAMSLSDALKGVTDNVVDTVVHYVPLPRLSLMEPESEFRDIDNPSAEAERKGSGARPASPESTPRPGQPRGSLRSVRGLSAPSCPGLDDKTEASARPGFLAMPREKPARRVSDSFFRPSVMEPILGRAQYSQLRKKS
Test: co-IP; cells lysed in RIPA buffer (50 mM Tris-HCl pH 7.4, 150 mM NaCl, 1% NP-40, 0.5% sodium deoxycholate, 0.1% SDS, 1 mM EDTA); protein A/G agarose beads with anti-PLIN1 or anti-ABHD5 antibody, 4°C; nonspecific IgG as control; Western blot for PLIN1, ABHD5 or ATGL; for ATGL, osteoblasts with and without lipid droplet treatment

binding: binds
Substance: ABHD5 (from UniProt Q9DBL9 1-351)
